# Patent US6995139B2, “Cyclic undecapeptide pro-drugs and uses thereof” (Debiopharm S.A., priority 2001, dated 2006)
# Not every detail of the peptide structures is certain; ends, links or a residue may be inferred. At least one compound was matched to its structure with a doubt left.
# Assay: Chemical stability over time in isotonic mannitol solution and phosphate buffer (PBS), Cyclosporin A detected
# Assay type: physicochemical
# Conditions: 4° C., solution of mannitol
smiles,measurement,value
"C/C=C/C[C@@H](C)[C@@H](OC(=O)CN(C)C(=O)[C@H](CCCC[N+](C)(C)C)NC(=O)OC(C)OC(C)=O)[C@H]1C(=O)N[C@@H](CC)C(=O)N(C)CC(=O)N(C)[C@@H](CC(C)C)C(=O)N[C@@H](C(C)C)C(=O)N(C)[C@@H](CC(C)C)C(=O)N[C@@H](C)C(=O)N[C@H](C)C(=O)N(C)[C@@H](CC(C)C)C(=O)N(C)[C@@H](CC(C)C)C(=O)N(C)[C@@H](C(C)C)C(=O)N1C (stereo partly shown) [(XV), MeBmt(O-Sar-Lys(Nε^+Me3)-COOCH(CH3)OCOCH3))^1-CsA.I^−]",time for which stable,at least 90 days
